# Results of single-concentration screens

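Whole-cell growth test on Mycobacterium tuberculosis, read after 4 days in a medium based on cholesterol and the lipid DPPC; the read-out is not stated. Tested at 50 µM. The record gives no direction; compounds that gave an IC50 in retests scored well above the rest, so higher reads as more growth inhibition. Of about 69,000 compounds tested this way, about 370 (0.54%) reached 50% or more in at least one test.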

Results are given as percent effect.
How 0% and 100% were set is not recorded. Most values in the screen are low, and negative values occur.
This is an unselected part of the compounds tested.
Two or more numbers in one place are separate tests of the same structure; such repeats can differ widely.

SMILES | Percent Effect
CCOC(=O)C1CCN(C(=O)c2cnn(-c3ccccc3F)c2N)CC1 | -15.24
CC(C)(C)Oc1ccc(CN)c(C(F)(F)F)c1 | -11.45
Cc1oc(C)c(C(=O)NCc2ccccc2CN(C)C)c1C | -16.24
[H][C@@]12CCN(C(=O)c3ccncc3)C[C@@]1([H])O[C@@H](C)C2 | -24.03
CCn1nc2c(cc1=O)CN(c1nc3ccccc3s1)CC2 | -21.4
CN(Cc1ncc[nH]1)c1nc(-c2ccccn2)nc2c1CCNCC2 | 4.151
COc1ccc(C(C(=O)O)N(C)Cc2c(C)nn(C)c2C)c(C)c1 (stereo unspecified) | -13.58 and -30.89
Cn1cccc1CN1CCC2(CC1)CN(c1ncccn1)CCO2.O=C(O)C(F)(F)F | -16.06
COC(=O)C1CCN(C(=O)Cn2ccc(-c3ccc(F)cc3)n2)CC1 | -6.991
[H][C@@]12CS(=O)(=O)C[C@]1([H])N(Cc1ccc(F)c(C)c1)CCN2CCOC | -2.62
CCc1cccc(N2CCC(NC(=O)C3CCC3)CC2)c1 | -19.87
CN(Cc1ccncc1)Cc1nccn1Cc1ccccc1 | 8.965 and -4.767
Cc1ccc(C(N)=O)cc1NCCOc1cccc(C#N)c1 | 2.074
[H][C@]12CC[C@]([H])(CN(C(=O)c3ccc(C)nc3)C1)N(Cc1ccccc1)C2 | 1.924
COCc1noc(Cn2c(C)cc(C(F)(F)F)cc2=O)n1 | -17.25
Cc1ccc(CN(C)C(=O)c2cccc(NC(N)=O)c2)o1 | -20.68
Cc1cc(CC(=O)N(C)Cc2cccc(OC(C)C)c2)n[nH]1 | -16.9
Cc1ccsc1CN(Cc1ccccn1)CC(O)CO (stereo unspecified) | 7.655
Cc1cc(C2CCC2)nc(N(C)Cc2cnccn2)n1 | -14.46
COc1c(Br)c(CC2CC(CO)=NO2)c(OC)c2c1OCO2 (stereo unspecified) | 5.886
Cc1nc(C)n(CC2CCCN2Cc2cc(C)on2)n1 (stereo unspecified) | -6.565
CC(C)(N)C(=O)N1CCC(c2nccnc2Oc2cccc(F)c2)CC1 | 10.96
CN(C)C(=O)C1OC2(CCN(C(=O)c3ccco3)CC2)c2ccccc21 (stereo unspecified) | -8.538
COc1ncccc1C1CC(=O)NCc2nc3ccccn3c21 (stereo unspecified) | -4.207
CC[C@@]1(O)CCN(C(=O)c2cccc3cc(C)oc23)C[C@H]1O | -17.43
Cc1cc(C2CCCCN2C(=O)c2cccn2C)nc2nccn12 (stereo unspecified) | -4.299
O=C1CC(NS(=O)(=O)c2ccc(F)c(Cl)c2)CN1 (stereo unspecified) | 14.51
CCOCC1CN(C(=O)Cc2ccccn2)Cc2c1cnn2CC (stereo unspecified) | -48.12 and -8.143
CCn1cnc(NC(=O)N2CCCC(c3ccccc3)CC2)n1 (stereo unspecified) | -1.493
O=C(COc1cccc2c1CCC2=O)NCc1ccccc1Cl | 2.907 and -14.44
CC(C)c1nc(-c2cc(C(=O)NCCCO)c3ccccn23)cs1 | 18.59
Cn1ccnc1CN1CCCC(CO)(CCc2ccccc2)C1 (stereo unspecified) | -1.887
Cc1nc(S(=O)(=O)N2CCCCc3ccccc32)cn1C | 1.818
O=C(O)C(F)(F)F.O=C(O)C(F)(F)F.[H][C@@]12CCN(c3ncccn3)[C@]1([H])CC[C@H](C(=O)NCc1cccnc1)O2 | -31.47 and -8.922
Nc1nc2nc(C3CCN(C(=O)c4cscn4)C3)ccc2s1 (stereo unspecified) | -16.1
COc1ncccc1CNC(=O)CN1CCCCCC1=O | -11.37
CC(C)[C@@H](C)NC1CCN(c2ccc(-n3ccnc3)cc2)CC1 | 16.13
CC(C)N1CCC[C@H]1C(=O)NCC1CCN(c2cnn(C)c(=O)c2)CC1 | -8.569 and -1.01
O=C(Cn1nc2c(cc1=O)CCCC2)NC(Cc1ccccc1)C(=O)O (stereo unspecified) | -6.072
N#Cc1ccc(NCCS(=O)(=O)N2CCc3ccccc32)nc1 | -22.73
Cc1ccc(Cl)c(CN2CCC(c3nccn3C(C)C)CC2)c1F | 1.114
CC(=O)c1cccc(OCCCC(=O)N(C)Cc2ccccn2)c1 | 23.22
Cc1nn(-c2ccccc2Cl)c(C)c1CCC(=O)O | 0.3339
Cc1n[nH]c(C)c1C1COCCN1C(=O)c1n[nH]c2ccccc12 (stereo unspecified) | -9.709
Cc1cccnc1C(=O)N1CCCC(c2[nH]ncc2S(C)(=O)=O)C1 (stereo unspecified) | 3.663
CC[C@@H](C)[C@H](NC(=O)NC1CCS(=O)(=O)C1)C(=O)NCc1ccncc1 (stereo partly specified) | -20.49
CN(C)CCCNC(=O)C(c1cccc(F)c1)N(C)C (stereo unspecified) | -6.896 and -0.3251
Cc1cccc(OCCN2CCN(Cc3noc(C)n3)CC2)c1 | -2.723
[H][C@@]12CCN(C(=O)N(C)C)[C@]1([H])CC[C@H](C(=O)N(C)C)O2 | -2.699
CS(=O)(=O)N1CC(c2nc(N)ncc2-c2ccc(F)cc2)C1 | -2.598
CCCN1CCC(NN2CCN(C)CC2)CC1 | 27.29
O=C(NCCCNc1ccccc1)c1scnc1Cl | -7.351
CC1CN(C)CCN1C(=O)c1ccn(-c2ccc(F)cc2)n1 (stereo unspecified) | -3.708
CNc1cncc(C2CCN(S(C)(=O)=O)CC2)n1 | 16.54
Cc1cnn(CC2CCCN2C(=O)c2c(F)cccc2Cl)c1 (stereo unspecified) | -17.26
Cc1ncsc1CCCNC(=O)C1CC2(CCNCC2)CN1C (stereo unspecified) | -11.46
CCN(CC(=O)N(C)C)C(=O)c1ccc(-c2nc(C)cs2)cc1 | 2.82
Cc1nc(-c2cc(Cl)cc3c2OC(CN)C3)c[nH]1 (stereo unspecified) | 16.11
[H][C@@]12CCN(S(C)(=O)=O)[C@]1([H])CC[C@@H](c1nnc(C)o1)O2 | -29.16
NC(=O)c1cccc(CCNCc2cccs2)c1 | 4.886
O=C(O)CN1CCOCC(Cc2ccc(Cl)cc2)C1 (stereo unspecified) | -15.19
Cc1cc(-c2cnc(C(C)C)nc2CN(C)C(=O)c2ccccn2)on1 | 7.044
O=C(O)C(F)(F)F.[H][C@@]12CN(Cc3cccs3)CCO[C@]1([H])CN(S(=O)(=O)C1CC1)C2 | -11.66
O=C(NCC1(CO)CC1)c1ccccc1F | -7.17
CC(C)CC(=O)N1CCN(Cc2csc(-c3ncccn3)n2)CC1 | -8.622 and -7.848
Cc1cccn2c(=O)cc(CN3CCCC3Cn3cncn3)nc12 (stereo unspecified) | -0.5823
Cc1cccc(C2(CNC(=O)CO)CCCC2)c1 | 12.28
COCCO[C@H]1CCN(Cc2ccsc2)[C@H]1Cc1cccnc1.O=C(O)C(F)(F)F.O=C(O)C(F)(F)F | -24.01
c1cc(-c2c[nH]c([C@@H]3COCCN3Cc3ncc[nH]3)n2)ccn1 | 12.44
Cc1nc(N(C)CCCc2nccn2C)c2nc(C)oc2n1 | 20.3
Cc1cc(NCCN)nc(-c2ccccc2O)n1 | 1.171
CCOCC(=O)NCC(Cc1cccc(F)c1)N1CCCCC1=O (stereo unspecified) | -19.42
Cc1ccc(-c2nc(CN3CCC(N4CCNC4=O)CC3)co2)cc1 | -7.71
CCNC(=O)C1CCN(Cc2ccc(C(=O)Nc3nnc(C)s3)cc2)C1 (stereo unspecified) | -1.976
Cl.c1cncc(CNc2cncc(C3CCCN3)n2)c1 (stereo unspecified) | 4.774
CCOc1cc2c(cc1CN1CCC3(CC1)CNC(=O)C3)CCC2 | -25.69
CCc1ncncc1C(=O)N1CCN(Cc2ccsc2)CC1 | -30.99
O=C(O)C(F)(F)F.O=C(O)C(F)(F)F.c1cncc(CN2CCCn3nnc(COCC4CC4)c3C2)c1 | -6.81 and -18.65
NC(=O)c1ccc(N2CCCCC2)c(NC(=O)c2cc(Br)ccc2Cl)c1 | -15.18
CN(Cc1ccccc1)c1cnn(CC2COCCO2)c(=O)c1 (stereo unspecified) | -14.88
CCS(=O)(=O)N1Cc2ncn(C)c2C(COCC2CCOCC2)C1.O=C(O)C(F)(F)F (stereo unspecified) | -7.44
CC(NC(=O)NCCCN1CCc2ccccc2C1)c1nncn1C (stereo unspecified) | -20.52
CC(C)CS(=O)(=O)Nc1ccc([C@H]2OCC(=O)N[C@@H]2CO)cc1 | -4.695
Cc1cc(NCCO)nc(-c2ccccc2O)n1 | -8.33
CCc1nc(C)ncc1C(=O)N1CCOC(c2nc(C)n[nH]2)C1 (stereo unspecified) | -1.587
[H][C@]12CC[C@]([H])(CN(C(=O)c3ccccc3)C1)N(C(=O)CN1CCOCC1)C2 | 3.909
Cc1cc(C)c(CNC(=O)NCCNc2cnccn2)c(=O)[nH]1 | -9.274
COc1cccc(C2CCN2C(=O)c2cc(C(C)C)on2)c1 (stereo unspecified) | 22.49
COCC(=O)N1CCC2(CC1)CC(COC)N(Cc1ccccn1)C2.O=C(O)C(F)(F)F (stereo unspecified) | -4.854
O=C(O)C(F)(F)F.O=C(O)C(F)(F)F.[H][C@@]12COC[C@]1(COc1cccnc1)CN(Cc1nccs1)C2 | 8.6
CCCn1ccnc1CN1CCCC(O)(CN(C)C)CC1 (stereo unspecified) | -21.32
CC(c1nc(C2CC2)no1)N1CCc2c(ncn2C)C1 (stereo unspecified) | 7.561
O=C(NCCn1cccc1)C1CCN(C2CCCCC2)CC1 | 2.632
Cn1ccnc1CC1CCCN(Cc2noc(C3CC3)n2)C1 (stereo unspecified) | 6.463

Some entries from above, unchanged:

{"smiles": "COCCO[C@H]1CCN(Cc2ccsc2)[C@H]1Cc1cccnc1.O=C(O)C(F)(F)F.O=C(O)C(F)(F)F", "Percent Effect": -24.01}
{"smiles": "CC[C@@]1(O)CCN(C(=O)c2cccc3cc(C)oc23)C[C@H]1O", "Percent Effect": -17.43}
{"smiles": "Cc1nc(-c2cc(Cl)cc3c2OC(CN)C3)c[nH]1", "stereo": "stereo unspecified", "Percent Effect": 16.11}
{"smiles": "COc1ncccc1CNC(=O)CN1CCCCCC1=O", "Percent Effect": -11.37}
{"smiles": "CC1CN(C)CCN1C(=O)c1ccn(-c2ccc(F)cc2)n1", "stereo": "stereo unspecified", "Percent Effect": -3.708}
{"smiles": "Cc1nc(C)n(CC2CCCN2Cc2cc(C)on2)n1", "stereo": "stereo unspecified", "Percent Effect": -6.565}
{"smiles": "O=C(O)C(F)(F)F.O=C(O)C(F)(F)F.[H][C@@]12COC[C@]1(COc1cccnc1)CN(Cc1nccs1)C2", "Percent Effect": 8.6}
{"smiles": "Cc1cccc(OCCN2CCN(Cc3noc(C)n3)CC2)c1", "Percent Effect": -2.723}

Measurements from “University of Dundee, Small-Polar-MMV Screening Library” (2021), ChEMBL document CHEMBL3988442.